From paper PMC10089971 (British journal of pharmacology, 2023)
Counter-ions that a name gives are not always drawn.

Tests used:
[1] = LC-MS of CPT-11 metabolites in intestinal contents; type: in vivo; conditions: saline- or morphine-treated mice, three hours post CPT-11 75 mg/kg
[2] = system: MC38 colon adenocarcinoma cells; experiment: MC38 subcutaneous tumor model, anti-tumor efficacy of CPT-11

## CN1CC[C@]23c4c5ccc(O)c4O[C@H]2[C@@H](O)C=C[C@H]3[C@H]1C5 [morphine, Morphine sulfate]
[1]
  SN-38G concentration in the small intestine: not significantly different
[2]
  body weight loss in tumor-bearing mice: induced weight loss
